Results taken from PubChem BioAssay AID504467 (National Center for Advancing Translational Sciences (NCATS), 2011).
Among all 330,000 compounds or so, about 7,700 (2.3%) were called active. The inconclusive results got no clear call from the source; some entries with a clear call stand among them for comparison. Calls come from the whole dose curve; as a rule, active = well fitted inhibition curve with a large enough effect; inconclusive = small, poorly fitted or top-dose-only effect, or effect the other way; inactive = flat fitted curve, though single readings scatter. Potencies of inconclusive entries are doubtful fits and often do not repeat.

Assay: qHTS screen for small molecules that inhibit ELG1-dependent DNA repair in human embryonic kidney (HEK293T) cells expressing luciferase-tagged ELG1; note: nearly all actives have a fitted effect of over 55% in size
Settings: HEK293T ELG1-luciferase reporter, luminescence, 16 h, DNA damage induced by 5-fluorouridine; activity change, negative = inhibition: at 46.1 µM (top of the series)
Method in brief: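 Overnight (16 hr) co-exposure of 2,000 cells/well to 5-fluorouridine and compound at 37 °C preceded detection. Luciferase was quantified via ONE-Glo luminescence; loss of signal denotes inhibition.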
% is set by controls: 0 for no effect and ±100 for the full control effect; potency is the fitted concentration of half-maximal effect.

| Compound | activity change, negative = inhibition | Potency |
| --- | --- | --- |
| O=C(NCCN1CCOCC1)/C(=C/c1ccc(Cl)cc1)NC(=O)c1ccccc1 | inactive: -6.7% | – |
| COC(=O)c1ccc(NC(=O)Nc2ccc3c(c2)nc(C)n3C)cc1 | inactive: 12.8% | – |
| Cn1c(=O)cc(OCCCC(=O)NCc2cccnc2)c2ccccc21 | – | inconclusive: 29.1 µM [activator, single point] |
| COc1ccc(-c2csc3ncnc(NCCO)c23)cc1 | – | inconclusive: 2.59 µM [inhibitor, full curve] |
| Cc1ccc(OCC(O)Cn2c(NCCc3ccccc3)nc3c2c(=O)[nH]c(=O)n3C)cc1 (stereo not given) | – | inconclusive: 7.31 µM [inhibitor, single point] |
| Nc1cc(=O)[nH]c(SCc2csc(-c3ccccc3)n2)n1 | – | inconclusive: 18.4 µM [activator, single point] |
| COc1ccc(OC)c2c(C)cc(N3CCN(C(=O)c4ccc(C)cc4)CC3)nc12 | – | inconclusive: 10.3 µM [inhibitor, partial curve, poor fit] |
| C[C@H](CO)N1C[C@H](C)[C@@H](CN(C)Cc2ccc(-c3ccccc3)cc2)Oc2c(NC(=O)Nc3ccc(C(F)(F)F)cc3)cccc2C1=O | inactive: -12.9% | – |
| CN(C)S(=O)(=O)c1ccc(Cl)c(NC(=O)C2CCN(S(=O)(=O)c3cccs3)CC2)c1 | – | inconclusive: 18.3 µM [inhibitor, partial curve] |
| Cc1ccc(C(=O)N/N=C(\CC(C)C)c2ccccc2)cc1 | inactive: 24.9% | – |
| COc1ccc(CN2CC(C(=O)N3CC(C)CC(C)C3)CC2=O)cc1 (stereo not given) | inactive: -1.97% | – |
| CCOc1cc2[nH]c(=O)n(CCCC(=O)N(C)Cc3ccccc3)c(=O)c2cc1OCC | – | inconclusive: 29.1 µM [inhibitor, single point] |
| O=[N+]([O-])c1ccc(N/N=C/c2ccc(OCc3cccc4ccccc34)cc2)nc1 | – | inconclusive: 14.6 µM [activator, partial curve] |
| CCOC(=O)c1c(NC(=O)COC(=O)/C=C/c2ccco2)sc2c1CC(C)(C)NC2(C)C | – | inconclusive: 0.651 µM [inhibitor, single point] |
| COc1cccc2cc(C(=O)CC3(O)C(=O)N(Cc4ccccc4)c4ccccc43)c(=O)oc12 (stereo not given) | inactive: -11% | – |
| O=C(Nc1cnn(Cc2ccc(F)cc2)c1)C(c1ccccc1)c1ccccc1 | – | inconclusive: 29.1 µM [inhibitor, single point] |
| Cc1ccc(Oc2ccc(OCC(=O)NC3CCS(=O)(=O)C3)cc2)cc1 (stereo not given) | – | active: 11.6 µM |
| COc1ccc(C(=O)NCC(c2ccco2)N2CCc3ccccc3C2)cc1 (stereo not given) | inactive: 13.8% | – |
| CNC(=O)COC(=O)C1CCN(S(=O)(=O)c2ccc3c(c2)OCCO3)CC1 | inactive: -0.292% | – |
| N#CCC(=O)N/N=C/c1coc2ccccc2c1=O | inactive: -8.33% | – |
| CCCCN(CCCC)Cc1cc2ccccc2c2c1COC2 | inactive: 22.2% | – |
| CCN(CC)C(=O)CSc1nc(O)cc(=O)n1CC | – | inconclusive: 0.82 µM [activator, single point] |
| COc1cccc(-c2cc(C(=O)NC3CCCCC3)no2)c1 | – | inconclusive: 14.6 µM [activator, partial curve] |

| Compound | activity change, negative = inhibition | Potency |
| --- | --- | --- |
| Cc1ccc(-c2nnc(Nc3ccc(C(=O)N(C)C)cc3)c3ccccc23)cc1S(=O)(=O)NCC1CCCO1 (stereo not given) | – | active: 20.6 µM |
| CC(=O)NC(NC(=S)Nc1cccc(Br)c1)C(Cl)(Cl)Cl (stereo not given) | – | inconclusive: 23.1 µM [inhibitor, single point] |
| Cc1cc(C)cc(Nc2ncc3c(n2)CCCC3=O)c1 | – | inconclusive: 1.64 µM [activator, partial curve] |
| CCCC1=C(C(=O)OCC)C(c2cc(Cl)cc(OC)c2OCc2ccccc2)NC(=O)N1 (stereo not given) | inactive: -10.3% | – |
| CCc1cc2c3c(c1)/C(=C1/SC(N)=NC1=O)C(=O)N3C(C)(C)C=C2C | – | inconclusive: 2.91 µM [activator, partial curve] |
| O=C(Nc1ccc2[nH]ncc2c1)c1ccc(F)cc1 | – | inconclusive: 16.4 µM [activator, partial curve] |
| Cc1cc(NC(=O)CSc2n[nH]c(-c3ccc(Cl)cc3Cl)n2)no1 | – | inconclusive: 29.1 µM [inhibitor, single point] |
| Cc1ccc(CN(Cc2ccco2)C(=S)NCC(=O)NC2CC2)cc1 | inactive: 1.02% | – |
| CCOc1ccccc1OCCCC(=O)N1CCN(S(=O)(=O)c2ccc(C)cc2C)CC1 | – | inconclusive: 18.3 µM [inhibitor, single point] |
| Cc1ccc(S(=O)(=O)Nc2cccnc2)cc1 | – | inconclusive: 20.6 µM [activator, single point] |
| O=C(Nc1cccc(CCc2ccccn2)c1)c1ccc(Cl)cc1 | – | inconclusive: 18.3 µM [inhibitor, single point] |
| CCOC(=O)C1CCN(Cc2nnnn2CCc2ccccc2)CC1 | – | inconclusive: 10.3 µM [activator, partial curve] |
| N/C(=N\OC(=O)CCc1ccccc1)c1cccnc1 | – | inconclusive: 29.1 µM [activator, single point] |
| Cc1ccccc1NC(=O)c1cc2ccccn2n1 | – | inconclusive: 2.59 µM [activator, partial curve] |
| COc1cc(OC)cc(C(=O)Nc2nnc(-c3cccnc3)o2)c1 | – | inconclusive: 29.1 µM [inhibitor, single point] |
| CCS(=O)(=O)C(C)(CCl)C(=O)Nc1ccc(C(=O)OC)cc1 (stereo not given) | – | inconclusive: 29.1 µM [activator, single point] |
| Cc1c(C(=O)NCc2ccc(F)cc2)oc2ccc(S(=O)(=O)N3CCOCC3)cc12 | – | inconclusive: 20.6 µM [inhibitor, single point] |
| O=C(CSc1nnnn1-c1ccc2c(c1)OCCO2)N1CCN(C(=O)c2ccco2)CC1 | inactive: -4.78% | – |
| Cc1ccc(-c2nnc(N)s2)cc1 | – | inconclusive: 20.6 µM [activator, partial curve] |
| Cn1nc([N+](=O)[O-])nc1S(C)(=O)=O | – | inconclusive: 25.9 µM [activator, partial curve] |
| Cc1nc(N)sc1N=Nc1ccccc1C(F)(F)F | – | inconclusive: 20.6 µM [activator, partial curve] |
| O=C(NC1CCCCC1)c1cccc(S(=O)(=O)N2CCCCC2)c1 | inconclusive: 27.3% [activator] | – |

Reprinted at random: three entries already listed

| Compound | activity change, negative = inhibition | Potency |
| --- | --- | --- |
| COc1cc(OC)cc(C(=O)Nc2nnc(-c3cccnc3)o2)c1 | – | inconclusive: 29.1 µM [inhibitor, single point] |
| CC(=O)NC(NC(=S)Nc1cccc(Br)c1)C(Cl)(Cl)Cl (stereo not given) | – | inconclusive: 23.1 µM [inhibitor, single point] |
| CCOc1ccccc1OCCCC(=O)N1CCN(S(=O)(=O)c2ccc(C)cc2C)CC1 | – | inconclusive: 18.3 µM [inhibitor, single point] |
